Measurements: publication PMC12040169 (PLOS Biology, 2025)
The list shows a part of the results.

tested on: T1, CTL2-GFP (C. trachomatis L2/434/Bu, GFP-expressing); parameters: species or system HeLa; Intracellular C. trachomatis growth in HeLa cells, bulk GFP fluorescence relative to DMSO; details: bulk GFP, single well; 28.5 h, 10 µM; inhibitor
T1 construct: L2/434/Bu, GFP-expressing

Going from `O=C(Cn1ccc(=O)[nH]c1=O)Nc1ccc(OCC(F)(F)F)cc1` [CBK305879] to `Cc1occc1SCC(=O)Nc1ccc(CN2CCOCC2)cc1` [CBK306453], the “% of control remaining” value rises from 59.0437% to 124.695%.

Compared with `Nc1ncc(-c2ccc(C(=O)N3CCOCC3)cc2)cc1C(=O)NCc1c(F)cccc1F` [CBK158569], `Cc1[nH]c2cccc(C(=O)N3CCCCC3CCNC(=O)c3ccccc3)c2c1C` (centres unmarked) [CBK285976] is lower in “% of control remaining” value: 99.8591% for the first, 60.4085% for the second.

Compared with `Nc1nc(OCCn2cccc2)cnc1-c1ccsc1` [CBK145162], `Nc1ncc(-c2ccoc2)nc1Nc1ccc2[nH]ccc2c1` [CBK063868] is lower in “% of control remaining” value: 114.597% for the first, 111.301% for the second.

Compared with `CN(Cc1ccccc1)c1nccnc1-c1ccccc1F` [CBK037410], `Cc1nn(-c2ccccc2)c(O)c1/C=N/c1ccccc1Sc1c(C)n[nH]c1C` [CBK262048] is higher in “% of control remaining” value: 100.146% for the first, 105.055% for the second.

Going from `O=C(c1ccccc1)c1ccc(OCC(O)CN2CCN(c3ccccn3)CC2)cc1` (centres unmarked) [CBK266513] to `O=C(c1ccccc1)c1ccc(OCCO)cc1` [CBK000725], the “% of control remaining” value falls from 131.839% to 109.326%.

First: Cc1ccc(OCC(=O)Nc2cc(Cl)ccc2O)cc1C [CBK265968]
Second: N#Cc1c(C(F)(F)F)cc(-c2ccccc2)nc1SCCC(=O)Nc1ccccc1O [CBK268191]
The “% of control remaining” value of the first is higher: 115.2% for the first, 93.1447% for the second.

Going from `O=C(CCn1c2ccccc2c2ccccc21)NNC(=S)Nc1ccccc1` [CBK262106] to `C/C(=N\NC(=O)CNC(=O)c1ccc(Br)cc1)c1ccccc1` [CBK262020], the “% of control remaining” value rises from 95.379% to 117.749%.

Compared with `O=C1NCCCC12CCN(Cc1ccc3ncccc3c1)CC2` [CBK284825], `CCNC(=O)N1CC2(CCN(Cc3ccc4ccccc4c3)CC2)c2ccccc21` [CBK126696] is higher in “% of control remaining” value: 105.365% for the first, 107.309% for the second.

Going from `C=CCNC(=O)N[C@H]1[C@H](O)[C@@H](Oc2ccccc2)[C@@H]2OC[C@H]1O2` [CBK288812] to `O=C(NCC1(CCO)CCOC1)c1c[nH]nc1-c1cc2ccccc2o1` (centres unmarked) [CBK305492], the “% of control remaining” value rises from 113.28% to 127.472%.

Going from `CCn1ccc(C(=O)NC(c2cncc(OC)c2)[C@H]2C[C@@H](O)C2)cc1=O` (some centres unmarked) [CBK307696] to `CCCN1CCC(CNC(=O)c2cnn(-c3ccc(F)cc3)c2)CC1` [CBK282466], the “% of control remaining” value falls from 120.174% to 96.5069%.

Compared with `CC(Cn1cncn1)C(=O)N1CCC(CCc2ccccc2F)CC1` (centres unmarked) [CBK281529], `Cn1cncc1C(=O)NC1Cc2ccccc2C1` [CBK200362] is higher in “% of control remaining” value: 120.351% for the first, 137.662% for the second.

Compared with `Cc1ccccc1Nc1nc(N)nc(CN2CC(C)OC(C)C2)n1` (centres unmarked) [CBK305856], `Cc1noc(C)c1NC(=O)c1cn(C)c2ccccc12` [CBK200312] is higher in “% of control remaining” value: 107.154% for the first, 108.271% for the second.

First: CN(C)[C@H]1CCCC[C@@H]1n1c(-c2ccc(Cl)c(Cl)c2)n[nH]c1=O [CBK010566]
Second: CN(CCc1ccncc1)C(=O)c1[nH]nc2c1CCCCC2 [CBK283151]
The “% of control remaining” value of the first is lower: 108.345% for the first, 112.613% for the second.

First: COc1ccc(S(=O)(=O)N2CCCCC2C(=O)O)cc1 (centres unmarked) [CBK077424]
Second: O=C(O)C1(NCc2ccc(F)cc2)CCCCC1 [CBK287270]
The “% of control remaining” value of the first is higher: 180.603% for the first, 152.592% for the second.

Compared with `O=C(/C=C/c1ccc([N+](=O)[O-])cc1)c1ccc(O)c(O)c1` [CBK265028], `O=C1S/C(=C\c2ccc(O)c([N+](=O)[O-])c2)C(=O)N1Cc1ccc(F)cc1` [CBK102928] is higher in “% of control remaining” value: 90.894% for the first, 100% for the second.

Compared with `O=C(Nc1sc2c(c1C(=O)O)CCC2)c1cccs1` [CBK152437], `CC(=O)c1ccc(NC(=O)N(C)c2c(C)nc3ccc(C(=O)N4CCN(C(=O)c5ccco5)CC4)cn23)cc1` [CBK146930] is higher in “% of control remaining” value: 117.667% for the first, 118.063% for the second.

Compared with `OC(CN[C@H]1CC[C@](O)(c2ccc(Cl)cc2)CC1)c1ccccc1` (some centres unmarked) [CBK016206], `O=C(Cc1ccc(F)cc1)N1C2CCC1CC(O)(c1ccco1)C2` (centres unmarked) [CBK284033] is lower in “% of control remaining” value: 139.039% for the first, 131.022% for the second.

First: O=C1CCC(C(=O)N2CC3(CCCC3)c3c(F)cccc32)CN1 (centres unmarked) [CBK304914]
Second: N#Cc1cccc(CN2CCCC3(CCN(C(=O)c4cc(F)c(F)cc4F)C3)C2)c1 (centres unmarked) [CBK131993]
The “% of control remaining” value of the first is lower: 73.5935% for the first, 103.51% for the second.

First: Cc1ccc(-c2csc(NC(=O)c3ccc(F)cc3)n2)cc1 [CBK095107]
Second: C=CCn1c(Cc2csc(NC(=O)c3ccc([N+](=O)[O-])c(C)c3)n2)n[nH]c1=S [CBK295323]
The “% of control remaining” value of the first is lower: 133.559% for the first, 158.536% for the second.

Compared with `O=C(NCc1ccc(OC2CCNCC2)cc1)c1cnccn1` [CBK036359T], `O=S(=O)(Nc1ncc(Br)c2cccnc12)c1cccc(C(F)(F)F)c1` [CBK073884] is lower in “% of control remaining” value: 103.572% for the first, 100.822% for the second.

Going from `Cc1cc(C)n(CC(=O)NCC(c2c(F)cccc2F)N(C)C)n1` (centres unmarked) [CBK305510] to `Cc1cc(C)n(-c2nc3cc(Cl)ccc3nc2NCc2ccc3c(c2)OCO3)n1` [CBK268482], the “% of control remaining” value falls from 104.511% to 95.9751%.

First: O[C@@H]1C[C@@H](c2nc(-c3ccc(F)cc3)no2)N(Cc2ncc[nH]2)C1 [CBK288849]
Second: COc1cccc2sc(Nc3nc4ccc(S(C)(=O)=O)cc4s3)nc12 [CBK287472]
The “% of control remaining” value of the first is lower: 114.208% for the first, 132.314% for the second.

First: COc1ccc(C2SCCCS2)cc1C(C)(C)C [CBK018886]
Second: Cc1cc(Cn2ccc(C(F)(F)F)n2)c(C)c(-c2c(C#N)c(N)nc3c2CCCCC3)c1 [CBK267928]
The “% of control remaining” value of the first is higher: 100.871% for the first, 96.5737% for the second.

Compared with `COCCN(Cc1nccs1)C(=O)C1CCc2nn(C)c(=O)n2C1` (centres unmarked) [CBK306506], `CC1CCCN(Cc2nc3c([nH]2)c(=O)n(C)c(=O)n3C)C1` (centres unmarked) [CBK306054] is higher in “% of control remaining” value: 121.224% for the first, 133.185% for the second.

First: CS(=O)(=O)c1ccc(-c2cccc(COC3CCN(C(=O)Cc4cccc5ccccc45)CC3)c2)cc1 [CBK149510]
Second: O=C(O)c1ccc(-c2ccc(/C=C/c3nc(O)c([N+](=O)[O-])c(=O)[nH]3)o2)cc1Cl [CBK267354]
The “% of control remaining” value of the first is lower: 85.5928% for the first, 161.815% for the second.
